Among the data in publication PMC6929609 are binding values, retold here.

The target of the assay is T1, Fc-sCD146 (human) (UniProt P43121).
T1 sequence: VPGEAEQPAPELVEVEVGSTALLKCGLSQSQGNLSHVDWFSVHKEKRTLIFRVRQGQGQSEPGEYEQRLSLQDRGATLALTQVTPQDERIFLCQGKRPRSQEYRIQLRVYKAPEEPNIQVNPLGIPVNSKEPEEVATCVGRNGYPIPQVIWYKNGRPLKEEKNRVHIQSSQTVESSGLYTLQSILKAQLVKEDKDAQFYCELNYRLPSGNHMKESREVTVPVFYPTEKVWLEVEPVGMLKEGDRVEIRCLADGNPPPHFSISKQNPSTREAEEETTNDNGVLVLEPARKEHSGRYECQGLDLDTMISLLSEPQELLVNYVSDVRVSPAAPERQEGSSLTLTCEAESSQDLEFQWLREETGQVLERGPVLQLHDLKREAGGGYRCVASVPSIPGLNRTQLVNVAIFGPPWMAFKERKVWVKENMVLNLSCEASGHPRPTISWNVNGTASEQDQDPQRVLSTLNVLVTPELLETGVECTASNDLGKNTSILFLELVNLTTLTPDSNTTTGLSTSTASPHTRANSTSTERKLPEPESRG
Briefly: co-IP; precleared hCMEC/D3 lysate (1 mg total protein; 20 mmol/L Tris-HCl pH 7.4, 150 mmol/L NaCl, 1 mmol/L CaCl2, 2 mmol/L MnCl2, 1.5% Triton X-100) incubated 4 h at 4 °C with human Fc or Fc-sCD146, then Protein G-plus agarose beads overnight at 4 °C; blots with anti-integrin αv, β1 or anti-Fc; only the target purified.

No constants are given. Whether binding was seen depends on the method and setting. In cells and extracts the contact can be indirect. Binding can be weak; no strength is given. Where a sequence is shown, tags or fusion partners need not be part of it.

As to “integrin αvβ1 (human (endogenous in hCMEC/D3)) (receptor)”, the binding entry is “binds”.
